Results on 1 molecule are retold here after publication PMC5379520.

By UniProt entry, the sequences of proteins in these tests, tags left out.
UniProt P43694: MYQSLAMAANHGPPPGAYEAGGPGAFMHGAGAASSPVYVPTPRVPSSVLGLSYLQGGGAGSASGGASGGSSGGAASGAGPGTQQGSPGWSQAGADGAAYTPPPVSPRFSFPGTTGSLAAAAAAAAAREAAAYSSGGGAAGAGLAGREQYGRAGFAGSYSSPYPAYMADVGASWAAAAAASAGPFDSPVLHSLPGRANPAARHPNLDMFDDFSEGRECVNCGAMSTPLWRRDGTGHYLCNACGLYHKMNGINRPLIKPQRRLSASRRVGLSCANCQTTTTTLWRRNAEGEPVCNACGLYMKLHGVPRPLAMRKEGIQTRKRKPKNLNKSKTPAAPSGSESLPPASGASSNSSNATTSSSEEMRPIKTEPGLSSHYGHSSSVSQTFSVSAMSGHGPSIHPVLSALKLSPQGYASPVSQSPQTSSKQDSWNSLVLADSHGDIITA

This assay concerns the target human GATA4 (human) (UniProt P43694). The assay can be described thus: co-IP; HEK293T co-transfected with GATA4 and wild-type or mutant ZFPM2; lysates 48 h after transfection incubated with HA affinity gel overnight at 4 °C; western blot, semi-quantitative analysis with ImageJ, three independent experiments. Background: Immunoblotting shows a protein as a band on a membrane.

These are yes or no findings as the source states them, for the method shown. In cells and extracts the contact can be indirect. Some entries that bind do so weakly or less than the wild type.

B1: human ZFPM2/FOG2 protein, wild type (protein, UniProt Q8WW38 1-1151)
chain: MSRRKQSKPRQIKRPLEDAIEDEEEECPSEETDIISKGDFPLEESFSTEFGPENLSCEEVEYFCNKGDDEGIQETAESDGDTQSEKPGQPGVETDDWDGPGELEVFQKDGERKIQSRQQLPVGTTWGPFPGKMDLNNNSLKTKAQVPMVLTAGPKWLLDVTWQGVEDNKNNCIVYSKGGQLWCTTTKAISEGEELIAFVVDFDSRLQAASQMTLTEGMYPARLLDSIQLLPQQAAMASILPTAIVNKDIFPCKSCGIWYRSERNLQAHLMYYCSGRQREAAPVSEENEDSAHQISSLCPFPQCTKSFSNARALEMHLNSHSGVKMEEFLPPGASLKCTVCSYTADSVINFHQHLFSHLTQAAFRCNHCHFGFQTQRELLQHQELHVPSGKLPRESDMEHSPSATEDSLQPATDLLTRSELPQSQKAMQTKDASSDTELDKCEKKTQLFLTNQRPEIQPTTNKQSFSYTKIKSEPSSPRLASSPVQPNIGPSFPVGPFLSQFSFPQDITMVPQASEILAKMSELVHRRLRHGSSSYPPVIYSPLMPKGATCFECNITFNNLDNYLVHKKHYCSSRWQQMAKSPEFPSVSEKMPEALSPNTGQTSINLLNPAAHSADPENPLLQTSCINSSTVLDLIGPNGKGHDKDFSTQTKKLSTSSNNDDKINGKPVDVKNPSVPLVDGESDPNKTTCEACNITFSRHETYMVHKQYYCATRHDPPLKRSASNKVPAMQRTMRTRKRRKMYEMCLPEQEQRPPLVQQRFLDVANLNNPCTSTQEPTEGLGECYHPRCDIFPGIVSKHLETSLTINKCVPVSKCDTTHSSVSCLEMDVPIDLSKKCLSQSERTTTSPKRLLDYHECTVCKISFNKVENYLAHKQNFCPVTAHQRNDLGQLDGKVFPNPESERNSPDVSYERSIIKCEKNGNLKQPSPNGNLFSSHLATLQGLKVFSEAAQLIATKEENRHLFLPQCLYPGAIKKAKGADQLSPYYGIKPSDYISGSLVIHNTDIEQSRNAENESPKGQASSNGCAALKKDSLPLLPKNRGMVIVNGGLKQDERPAANPQQENISQNPQHEDDHKSPSWISENPLAANENVSPGIPSAEEQLSSIAKGVNGSSQAPTSGKYCRLCDIQFNNLSNFITHKKFYCSSHAAEHVK
On to B1, for which the binding result is “binds”.
